Results as given in patent publication US11274108B2 (priority 2015, dated 2022).

Columns and labels:
[1] = system: microglia, monocytes/macrophages and lymphocytes in the brain and spinal cord; details: mouse, in vivo
[2] = system: primary murine microglial cells

SMILES	CD86 expression (MFI) on microglia and monocyte/macrophage populations [1]	proliferative activity of unstimulated primary murine microglial cells [2]	proliferation of CSF-1-stimulated primary murine microglial cells [2]
COc1ccc(C2COc3cc(Cn4cnc5cc(C#CC(C)(C)N)cnc54)ccc3O2)cn1 (stereo not shown) [Genz-882706, 4-(3-((2-(6-methoxypyridin-3-yl)-2,3-dihydrobenzo[b][1,4]dioxin-6-yl)methyl)-3H-imidazo[4,5-b]pyridin-6-yl)-2-methylbut-3-yn-2-amine]	No significant effects	increased level of proliferative activity	
CCN(C(=O)c1c(O)c2c(Cl)cccc2n(C)c1=O)c1ccccc1 [Laquinimod]		increased level of proliferative activity	no effect or increased the proliferative activity
